This passage reports binding results from publication PMC9322787.

Amino acid sequences for entries named in this document (tags omitted).
UniProt P52332: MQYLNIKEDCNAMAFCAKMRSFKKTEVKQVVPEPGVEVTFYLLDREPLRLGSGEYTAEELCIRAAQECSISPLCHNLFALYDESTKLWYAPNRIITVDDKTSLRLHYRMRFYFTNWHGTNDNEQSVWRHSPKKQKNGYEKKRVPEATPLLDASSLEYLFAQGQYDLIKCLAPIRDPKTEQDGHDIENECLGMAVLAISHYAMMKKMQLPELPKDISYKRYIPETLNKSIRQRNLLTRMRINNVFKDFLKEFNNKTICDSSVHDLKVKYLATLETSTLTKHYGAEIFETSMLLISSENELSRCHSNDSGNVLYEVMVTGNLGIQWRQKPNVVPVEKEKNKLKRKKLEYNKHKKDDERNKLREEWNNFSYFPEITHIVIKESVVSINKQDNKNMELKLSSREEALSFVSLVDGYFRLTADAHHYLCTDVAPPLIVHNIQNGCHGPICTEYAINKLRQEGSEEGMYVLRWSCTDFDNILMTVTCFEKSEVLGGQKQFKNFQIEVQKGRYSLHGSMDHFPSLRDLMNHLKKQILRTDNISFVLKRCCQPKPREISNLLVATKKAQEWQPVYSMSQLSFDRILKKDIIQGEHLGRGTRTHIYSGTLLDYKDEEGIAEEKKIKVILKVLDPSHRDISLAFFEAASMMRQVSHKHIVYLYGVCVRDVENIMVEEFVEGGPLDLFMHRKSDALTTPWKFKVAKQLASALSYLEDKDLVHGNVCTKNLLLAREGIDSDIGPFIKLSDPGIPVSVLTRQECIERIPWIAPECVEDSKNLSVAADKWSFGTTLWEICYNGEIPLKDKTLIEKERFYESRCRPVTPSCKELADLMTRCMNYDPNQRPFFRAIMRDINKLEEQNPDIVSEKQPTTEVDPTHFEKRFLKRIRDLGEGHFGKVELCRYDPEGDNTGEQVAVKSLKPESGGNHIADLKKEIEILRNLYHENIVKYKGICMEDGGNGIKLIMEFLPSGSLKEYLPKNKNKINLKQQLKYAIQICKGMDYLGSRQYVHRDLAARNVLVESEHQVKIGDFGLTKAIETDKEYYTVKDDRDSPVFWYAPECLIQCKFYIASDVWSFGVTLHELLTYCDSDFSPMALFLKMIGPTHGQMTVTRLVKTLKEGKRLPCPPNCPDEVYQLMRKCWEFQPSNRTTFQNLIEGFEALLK
UniProt Q04207: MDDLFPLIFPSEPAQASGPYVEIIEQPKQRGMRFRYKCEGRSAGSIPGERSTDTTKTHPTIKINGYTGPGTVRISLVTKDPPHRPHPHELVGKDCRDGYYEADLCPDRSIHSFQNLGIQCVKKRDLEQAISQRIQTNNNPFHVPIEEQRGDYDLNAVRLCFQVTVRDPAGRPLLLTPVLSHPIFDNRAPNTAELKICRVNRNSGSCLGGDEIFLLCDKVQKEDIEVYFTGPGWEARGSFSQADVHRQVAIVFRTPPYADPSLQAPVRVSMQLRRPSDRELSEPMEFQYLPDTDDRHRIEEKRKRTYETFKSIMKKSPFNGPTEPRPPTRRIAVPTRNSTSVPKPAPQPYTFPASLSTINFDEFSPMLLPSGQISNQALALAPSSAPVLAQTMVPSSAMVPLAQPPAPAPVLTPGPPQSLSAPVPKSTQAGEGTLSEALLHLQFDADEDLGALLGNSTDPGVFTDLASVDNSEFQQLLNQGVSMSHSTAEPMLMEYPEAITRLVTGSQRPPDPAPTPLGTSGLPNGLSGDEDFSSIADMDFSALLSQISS
UniProt P42227: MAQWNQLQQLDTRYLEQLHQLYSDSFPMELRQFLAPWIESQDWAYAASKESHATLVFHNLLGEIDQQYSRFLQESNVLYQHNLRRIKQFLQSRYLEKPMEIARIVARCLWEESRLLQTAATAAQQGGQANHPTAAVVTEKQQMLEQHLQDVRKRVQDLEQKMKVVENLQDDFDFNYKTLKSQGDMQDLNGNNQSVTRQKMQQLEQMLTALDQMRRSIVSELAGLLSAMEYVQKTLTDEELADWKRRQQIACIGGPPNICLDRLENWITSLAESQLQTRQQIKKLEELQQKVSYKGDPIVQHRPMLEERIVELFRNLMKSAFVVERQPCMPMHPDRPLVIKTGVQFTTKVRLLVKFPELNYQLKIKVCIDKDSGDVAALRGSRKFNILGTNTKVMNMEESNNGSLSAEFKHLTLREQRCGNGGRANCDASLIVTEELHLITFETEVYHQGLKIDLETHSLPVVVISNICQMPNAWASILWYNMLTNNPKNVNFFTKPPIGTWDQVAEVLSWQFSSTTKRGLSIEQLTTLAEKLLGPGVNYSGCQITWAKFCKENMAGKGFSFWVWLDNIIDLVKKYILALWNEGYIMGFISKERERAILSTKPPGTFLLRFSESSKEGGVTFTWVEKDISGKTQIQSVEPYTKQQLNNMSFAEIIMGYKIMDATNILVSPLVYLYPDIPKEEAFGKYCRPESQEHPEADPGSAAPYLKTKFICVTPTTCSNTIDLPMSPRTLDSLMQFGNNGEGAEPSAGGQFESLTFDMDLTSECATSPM
UniProt Q9Z1E3: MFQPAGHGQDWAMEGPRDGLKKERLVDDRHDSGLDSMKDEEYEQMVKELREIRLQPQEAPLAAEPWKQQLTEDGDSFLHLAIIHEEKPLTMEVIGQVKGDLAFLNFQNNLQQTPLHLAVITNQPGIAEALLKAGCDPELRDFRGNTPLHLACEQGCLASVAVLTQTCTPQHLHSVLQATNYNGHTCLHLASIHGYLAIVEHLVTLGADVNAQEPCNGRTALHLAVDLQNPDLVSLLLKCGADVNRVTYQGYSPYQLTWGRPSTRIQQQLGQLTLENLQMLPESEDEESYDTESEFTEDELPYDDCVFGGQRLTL

Assay [1] addresses JAK1 (mouse (endogenous in RAW264.7)) (UniProt P52332). As to the kind of experiment: co-IP; precleared whole-cell lysates of RAW264.7 cells (pretreated with hispolon 1 h, then LPS 1 h) incubated overnight at 4 °C with monoclonal anti-JAK1 or anti-NF-κB p65 antibody, G and L agarose beads, washed five times with lysis buffer; Western blot.
For assay [2], the target named is NF-κB p65 (mouse (endogenous in RAW264.7)) (UniProt Q04207). The assay is described as above.

Results are given in words; binding and its absence hold for the method and conditions named. In cells and extracts the contact can be indirect. Some entries that bind do so weakly or less than the wild type.

STAT3 (from UniProt P42227 1-770): in assay [1], the binding result is reported as “binds”.

Turning to “phospho-IκBα (from UniProt Q9Z1E3 1-314)”, the binding entry in assay [2] is given as “binds”.
